Reference: publication PMC12615815, “GroEL/ES chaperonin unfolds then encapsulates a nascent protein on the ribosome” (Nature Communications, 2025)
No constants are given. Whether binding was seen depends on the method and setting. Some entries that bind do so weakly or less than the wild type.

What was measured:
[1] = target: T1, Ribosomal stalk protein L7/L12 (E. coli, UniProt P0A7K2 1-121); test: cross-linking; XL-MS: RNC_(1-510mut) with 5 µM GroEL and 10 µM GroES, then 1 mM ATP, 1 mM BeSO4, 10 mM NaF; 1 mM DSBU 1 h at 25 °C; both purified
T1 construct: ribosomal protein L7/L12, E. coli, as part of the ribosome; Cross-linked while part of the 70S ribosome or RNC; also called stalk complex; source: endogenous, in E. coli 70S ribosomes (bought: NEB) and in RNCs purified from E. coli

[2] = target: T1, Ribosomal stalk protein L7/L12; test: cross-linking; XL-MS: 1-2 µM RNC with 5 µM GroEL (30 min, 30 °C), 1 mM DSBU 1 h at 25 °C, ribosomal fraction pelleted, trypsin, LC-MS/MS, MeroX; both purified
[3] = target: T1, Ribosomal stalk protein L7/L12; test: cross-linking; XL-MS: empty 70S ribosomes (complete or stripped of L7/L12) with 5 µM GroEL, 1 mM DSBU 1 h at 25 °C, ribosomal fraction pelleted, LC-MS/MS; both purified

binding [1]: binds
binding [2]: binds
binding [3]: binds
Substance: GroEL (V381W, A384W, V387W) (from UniProt P0A6F5 2-525)
